Patent US20240417727A1, “ANTAGONIST OF THE MIRNA-106B-5P TO TREAT OR PREVENT THE CARDIOTOXICITY THAT IS DEVELOPED IN ONCOLOGIC PATIENTS AFTER RECEIVING ANTHRACYCLINE-BASED CHEMOTHERAPY” (UNIVERSIDAD DE MURCIA, priority 2021, published 2024)
No constants are given. Whether binding was seen depends on the method and setting. In cells and extracts the contact can be indirect. Some entries that bind do so weakly or less than the wild type.

Protein sequences, listed by entry. Tags and fused reporters are not part of them.
UniProt Q00899: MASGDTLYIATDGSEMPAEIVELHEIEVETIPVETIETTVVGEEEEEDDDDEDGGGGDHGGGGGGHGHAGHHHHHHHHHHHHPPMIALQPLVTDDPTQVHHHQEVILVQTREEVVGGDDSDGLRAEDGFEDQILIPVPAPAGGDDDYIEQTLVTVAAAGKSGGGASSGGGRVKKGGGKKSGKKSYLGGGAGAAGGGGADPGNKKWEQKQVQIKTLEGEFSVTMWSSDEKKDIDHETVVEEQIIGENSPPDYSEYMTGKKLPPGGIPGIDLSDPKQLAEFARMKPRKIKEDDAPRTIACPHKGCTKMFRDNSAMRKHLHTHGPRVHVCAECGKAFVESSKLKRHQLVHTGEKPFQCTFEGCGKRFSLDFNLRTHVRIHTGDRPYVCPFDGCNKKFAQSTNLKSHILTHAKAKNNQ
UniProt Q6NZM9: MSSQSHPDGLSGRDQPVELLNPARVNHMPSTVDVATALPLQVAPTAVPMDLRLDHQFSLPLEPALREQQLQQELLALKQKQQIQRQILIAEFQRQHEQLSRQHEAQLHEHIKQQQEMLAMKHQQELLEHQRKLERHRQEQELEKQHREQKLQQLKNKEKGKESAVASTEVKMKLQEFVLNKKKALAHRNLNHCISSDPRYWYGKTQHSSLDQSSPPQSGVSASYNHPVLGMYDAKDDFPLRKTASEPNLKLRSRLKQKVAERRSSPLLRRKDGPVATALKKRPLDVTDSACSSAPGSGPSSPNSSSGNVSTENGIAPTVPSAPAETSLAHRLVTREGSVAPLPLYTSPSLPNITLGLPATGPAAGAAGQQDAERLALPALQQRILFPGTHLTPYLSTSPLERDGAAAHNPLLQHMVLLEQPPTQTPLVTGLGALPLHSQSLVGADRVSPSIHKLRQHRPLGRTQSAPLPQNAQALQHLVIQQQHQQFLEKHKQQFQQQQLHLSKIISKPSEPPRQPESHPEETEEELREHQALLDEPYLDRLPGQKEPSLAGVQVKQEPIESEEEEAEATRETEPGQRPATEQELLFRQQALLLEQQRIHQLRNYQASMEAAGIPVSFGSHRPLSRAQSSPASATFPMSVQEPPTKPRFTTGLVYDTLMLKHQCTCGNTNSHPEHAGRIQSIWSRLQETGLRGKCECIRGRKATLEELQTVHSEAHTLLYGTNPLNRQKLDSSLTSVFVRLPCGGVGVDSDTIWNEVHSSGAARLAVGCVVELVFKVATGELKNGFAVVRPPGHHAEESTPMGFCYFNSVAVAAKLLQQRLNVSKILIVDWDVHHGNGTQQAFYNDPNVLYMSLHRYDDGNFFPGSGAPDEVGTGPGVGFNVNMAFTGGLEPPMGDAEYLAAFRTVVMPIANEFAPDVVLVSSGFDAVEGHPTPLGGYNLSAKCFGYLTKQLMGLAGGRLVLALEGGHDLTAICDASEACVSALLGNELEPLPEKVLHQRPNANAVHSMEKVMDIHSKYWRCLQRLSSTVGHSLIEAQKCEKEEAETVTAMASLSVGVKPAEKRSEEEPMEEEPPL

Molecular target: Yin yang-1 transcription factor (YY1), endogenous, from mouse left ventricular myocardium (mouse) (UniProt Q00899)
Assay: co-immunoprecipitation and western blot, mouse LV myocardium (FIG. 6b)

- binding: binds
Substance: Histone deacetylase 4 (HDAC4), endogenous, from mouse left ventricular myocardium (from UniProt Q6NZM9 1-1076) (enzyme)
